Earlier results as cited in US12227496B2 (BRISTOL-MYERS SQUIBB COMPANY, priority 2019, dated 2025).
For at least one compound, name, drawing or mass did not settle the structure.

Tests used:
T2DM patients with NAFLD = conditions: 6-week clinical trial; cited from earlier work
patients with NASH = conditions: 72-week clinical trial; cited from earlier work

For `CC[C@H]1[C@@H](O)[C@@H]2[C@H](CC[C@]3(C)[C@@H]([C@H](C)CCC(=O)O)CC[C@@H]23)[C@@]2(C)CC[C@@H](O)C[C@@H]12` [OCA, obeticholic acid], the body weight (T2DM patients with NAFLD) is given as “reduced”, the insulin sensitivity (T2DM patients with NAFLD) is given as “statistically significantly improved” and the “hepatic steatosis, lobular inflammation, hepatocyte ballooning, and fibrosis as assessed by histological analyses of liver biopsies” value (patients with NASH) is given as “statistically significantly improved”.
